Measurements: article PMC8483418
Residue numbers refer to the chain shown, from its start. No constants are given. Whether binding was seen depends on the method and setting. In cells and extracts the contact can be indirect. For part of these data: Binding can be weak; no strength is given. Sequences can lack the tags named with a protein.

Amino acid sequences for entries named in this document (tags omitted). A change or cut given only in a name is not applied to a line headed by its entry.
UniProt I3LEZ7: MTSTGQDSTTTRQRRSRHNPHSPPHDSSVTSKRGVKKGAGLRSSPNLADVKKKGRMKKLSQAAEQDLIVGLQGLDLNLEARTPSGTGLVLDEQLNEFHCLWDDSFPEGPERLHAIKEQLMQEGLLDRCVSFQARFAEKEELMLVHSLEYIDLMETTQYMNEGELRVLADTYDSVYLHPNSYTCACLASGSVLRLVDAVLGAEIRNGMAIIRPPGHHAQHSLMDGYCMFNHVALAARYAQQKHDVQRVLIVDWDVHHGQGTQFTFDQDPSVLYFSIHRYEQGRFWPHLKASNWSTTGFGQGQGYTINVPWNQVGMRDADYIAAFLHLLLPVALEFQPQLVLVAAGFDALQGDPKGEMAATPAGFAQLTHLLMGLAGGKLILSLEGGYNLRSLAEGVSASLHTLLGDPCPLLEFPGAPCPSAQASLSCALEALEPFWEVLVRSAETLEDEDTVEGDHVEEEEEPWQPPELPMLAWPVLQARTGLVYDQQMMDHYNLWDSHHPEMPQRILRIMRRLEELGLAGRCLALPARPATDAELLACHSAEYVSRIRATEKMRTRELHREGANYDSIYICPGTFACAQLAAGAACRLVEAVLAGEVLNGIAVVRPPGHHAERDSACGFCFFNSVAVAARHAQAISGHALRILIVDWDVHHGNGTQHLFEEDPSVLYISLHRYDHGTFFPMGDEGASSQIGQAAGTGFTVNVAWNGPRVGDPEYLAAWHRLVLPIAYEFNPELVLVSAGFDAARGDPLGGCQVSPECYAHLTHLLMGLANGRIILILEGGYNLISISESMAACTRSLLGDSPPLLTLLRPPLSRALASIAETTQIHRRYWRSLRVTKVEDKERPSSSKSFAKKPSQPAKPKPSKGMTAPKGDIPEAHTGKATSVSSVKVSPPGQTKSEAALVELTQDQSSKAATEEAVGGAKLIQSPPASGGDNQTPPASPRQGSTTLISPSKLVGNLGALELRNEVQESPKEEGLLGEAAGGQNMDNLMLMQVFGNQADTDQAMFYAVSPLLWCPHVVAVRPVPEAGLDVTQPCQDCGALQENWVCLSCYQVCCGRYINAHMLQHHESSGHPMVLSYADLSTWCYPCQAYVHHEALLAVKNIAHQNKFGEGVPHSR

What was measured:
[1] = biological target: T1, 3×Flag-tagged wild-type porcine cGAS (porcine) (UniProt I3LM39); assay: co-IP; cGAS-/- PK-15 cells transfected with HA-p62 and 3×Flag-cGAS or 3×Flag-cGAS (K389R) (S3F Fig)
T1 sequence (chain, in PCV2-infected cells, K48-linked poly-ubiquitin at K389; phosphoserine at S278): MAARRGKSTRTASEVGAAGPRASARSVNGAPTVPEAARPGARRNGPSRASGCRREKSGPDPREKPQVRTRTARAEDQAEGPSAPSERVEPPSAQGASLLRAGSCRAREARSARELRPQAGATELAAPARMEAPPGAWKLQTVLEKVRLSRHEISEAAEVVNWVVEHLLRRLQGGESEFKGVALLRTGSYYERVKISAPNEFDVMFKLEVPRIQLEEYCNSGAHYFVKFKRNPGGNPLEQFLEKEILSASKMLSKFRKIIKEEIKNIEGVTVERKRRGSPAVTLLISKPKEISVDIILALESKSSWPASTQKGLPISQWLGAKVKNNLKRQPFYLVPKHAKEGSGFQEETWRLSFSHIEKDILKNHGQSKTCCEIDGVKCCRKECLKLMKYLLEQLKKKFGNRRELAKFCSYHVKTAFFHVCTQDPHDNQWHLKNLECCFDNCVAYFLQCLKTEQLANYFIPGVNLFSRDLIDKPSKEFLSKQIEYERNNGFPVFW

[2] = biological target: T1, 3×Flag-tagged wild-type porcine cGAS (porcine); assay: co-IP; PK-15 or cGAS-/- PK-15 cells transfected with Flag-cGAS constructs, infected with PCV2 (MOI = 5), mostly with Baf, 48 h; lysis buffer 150 mM NaCl, 50 mM Tris-HCl pH 7.4, 1% Nonidet P-40, 0.5% Triton X-100; antibody overnight at 4°C, protein G/A agarose; immunoblot. Treatments also tested for cGAS with p62: siHDAC6, reconstitution with HDAC6 FL, ΔUBD or HDAC6-3M, Tubastatin A, EBSS
[3] = biological target: T2, 3×Flag-tagged porcine cGAS (K389R) (porcine) (UniProt I3LM39); assay: as above
T2 sequence: T1 sequence (chain, in PCV2-infected cells, K48-linked poly-ubiquitin at K389; phosphoserine at S278) with K389R

| Substance | binding [1] | binding [2] | binding [3] |
| --- | --- | --- | --- |
| HA-p62 | binds | – | – |
| histone deacetylase 6 (HDAC6), endogenous (from UniProt I3LEZ7) | – | binds | no binding |
